PubChem BioAssay AID1259425 | University of Nebraska Medical Center, 2018

Screen: 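Find knockdowns that reproduce the gene expression pattern seen when KSR1 is lost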 (primary screen)
Cell system: HCT116 human colon cancer cells
Knock-down reagent: siRNA pool against human genes, 50 nM siRNA
Measurement: 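After 50 nM siRNA pool, branched-DNA assay measures six marker transcripts per well, minus blank, normalised to the geometric mean of two housekeeping transcripts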
Scale: BNIP3L mRNA: higher = more BNIP3L transcript after knockdown; NDRG1 mRNA: higher = more NDRG1 transcript after knockdown; BNIP3 mRNA: higher = more BNIP3 transcript after knockdown; ALDOC mRNA: higher = more ALDOC transcript after knockdown; ACSL5 mRNA: higher = more ACSL5 transcript after knockdown
Here is one part, drawn at random, of about 14,000 deposited reagents. No sequences are given here. Not stated in the record: the time to read-out.

gene | PubChem SID | BNIP3L mRNA, set 1 | NDRG1 mRNA, set 1 | BNIP3 mRNA, set 1 | ALDOC mRNA, set 1 | ACSL5 mRNA, set 1
KCNJ16 | SID364001157 | 0.0601 | 0.162 | 0.243 | 0.0212 | 0.0756
TTC13 | SID364002846 | 0.174 | 0.47 | 0.317 | 0.0387 | 0.615
GCN1 | SID364005177 | 0.153 | 0.334 | 0.357 | 0.0307 | 0.221
RAD51AP1 | SID363997287 | 0.0509 | 0.345 | 0.234 | 0.0207 | 0.111
GCNA | SID364004422 | 0.134 | 0.501 | 0.223 | 0.0104 | 0.222
FXN | SID363991480 | 0.122 | 0.0705 | 0.332 | 0.0201 | 0.157
KLRB1 | SID363993457 | 0.0667 | 0.332 | 0.317 | 0.0219 | 0.12
SERPINA7 | SID363991686 | 0.126 | 0.165 | 0.324 | 0.00759 | 0.174
NOS1 | SID363991938 | 0.116 | 0.111 | 0.199 | 0.012 | 0.119
TEX101 | SID364003634 | 0.142 | 0.457 | 0.28 | 0.0803 | 0.461
KPNA1 | SID363993462 | 0.139 | 0.161 | 0.319 | 0.0654 | 0.145
SP110 | SID363995486 | 0.0648 | 0.145 | 0.245 | 0.0107 | 0.198
KRT84 | SID364004293 | 0.095 | 0.0749 | 0.201 | 0.0271 | 0.114
IGF2BP3 | SID363997339 | 0.229 | 0.0653 | 0.379 | 0.0527 | 0.09
MBD4 | SID363994981 | 0.112 | 0.273 | 0.308 | 0.0244 | 0.192
PSMB5 | SID363993954 | 0.526 | 1.99 | 0.585 | 0.142 | 0.403
EIF1AD | SID364003911 | 0.111 | 0.441 | 0.236 | 0.0396 | 0.301
CD63 | SID363992999 | 0.0754 | 0.198 | 0.188 | 0.0131 | 0.131
ADIPOR1 | SID363999784 | 0.161 | 0.106 | 0.175 | 0.0313 | 0.196
TMPRSS13 | SID364003765 | 0.273 | 0.259 | 0.266 | 0.0547 | 0.367
